From the supplement of paper PMC3334620
In all, about 33,000 sequences were measured (“E-score (-0.5 to 0.5)”: median about -0.0014, highest 2% from about 0.25 on). This is one part of the list.

Biological target: T1, Cad1 (UniProt P24813)
T1 sequence: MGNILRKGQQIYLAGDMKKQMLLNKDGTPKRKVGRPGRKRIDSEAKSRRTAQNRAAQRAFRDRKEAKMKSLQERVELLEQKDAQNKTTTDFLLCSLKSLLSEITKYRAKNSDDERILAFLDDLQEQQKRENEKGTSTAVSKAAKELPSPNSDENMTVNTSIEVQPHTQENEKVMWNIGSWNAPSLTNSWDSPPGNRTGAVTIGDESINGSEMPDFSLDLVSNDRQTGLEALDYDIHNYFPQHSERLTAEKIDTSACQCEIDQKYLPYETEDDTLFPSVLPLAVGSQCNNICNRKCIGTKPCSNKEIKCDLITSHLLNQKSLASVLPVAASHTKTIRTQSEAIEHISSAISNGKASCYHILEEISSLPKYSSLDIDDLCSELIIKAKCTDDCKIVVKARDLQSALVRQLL
Experiment: PBM E-score (8-mer binding enrichment) (E-score (-0.5 to 0.5)); higher = stronger / more preferred TF binding
Settings: protein concentration: 100 nM; construct: GST-full length
Experimental: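 Universal 'all 10-mer' protein binding microarrays (Agilent AMADID 015681) probed with GST-tagged S. cerevisiae TFs (full-length or DBD) made by in vitro transcription/translation (PURExpress), about 100-200 nM. Bound TF was detected with fluorescent anti-GST. Each ungapped 8-mer (which stands for itself and its reverse complement) is scored by the PBM enrichment score (E-score), a modified Wilcoxon-Mann-Whitney statistic from -0.5 to +0.5, computed with the Universal PBM Analysis Suite. Scale: above 0.35 generally sequence-specific binding.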

Sequence	PBM E-score
AAGTCTGT	0.107
GACCGCCC	-0.219
AAATAAAC	0.135
ATACGAAG	0.0441
CCGACAGC	-0.21
AAGACGAA	0.0967
ATCTCTCC	-0.134
TAATGCAA	-0.0846
CAAATATG	0.135
CTAACCAG	0.0758
CCCTTTAG	-0.266
CTACTAGA	-0.0699
CCGTAGGA	-0.14
CAGCGCTG	0.263
GCCAACGC	0.188
GATCAATC	-0.0553
AAACAGGA	0.0149
ATACAAAT	0.131
ACTGTTGG	-0.0581
ATTTCTTA	0.133
GCCCCCGA	-0.382
AGACGAAT	-0.0535
CGATGAAG	-0.0787
AAGCATCG	0.0399
ACCGATCT	-0.198

Sequence	PBM E-score
ATCTTCCG	-0.0426
TAATAGCA	0.0297
ATTTAGTG	0.176
CCGCAATC	0.0652
AGAGTCTC	-0.0766
CCTTAACA	-0.0661
AGGGGATA	-0.154
ATAGCACA	0.029
ACGGTTAC	0.0282
CGTAAACG	-0.0817
CTTGGGAC	-0.0745
ATGATATA	-0.027
CTACTCCC	0.0213
AGGTGTAT	0.0309
AAACGGCC	0.0711
CGGGTTGA	-0.0422
CCTGGAAA	-0.0814
CCTTCGCA	-0.206
GTGGAGAA	0.0656
TACGCGTA	0.114
GTGATGCA	0.147
ACTACGAA	0.0932
GTTCCCTA	-0.0845
GCTACCTA	0.0857
ACATCCGT	0.0223

Sequence	PBM E-score
ATGGCTGG	-0.224
ATCAAGGC	0.038
CCGGGGTC	-0.102
GATCACCA	0.163
ACGCAACA	-0.0161
CACCAGCA	-0.0515
CTCAGCAC	0.0326
GGACTACA	-0.178
GCTGATAA	0.161
CGTTCGAA	0.177
AATGCAGA	0.0276
CCCCTCGC	-0.202
CATAGATC	-0.0563
CGGAAAAC	0.221
CACTCCCA	-0.11
AAACTACG	-0.0126
AACTAAAA	0.133
TGGTGTAA	-0.0084
ATTACAAT	0.104
ATTCGTCG	0.19
AACGTATA	0.0823
CGCATGAG	-0.038
CGATAATA	0.198
TAAATTTA	0.154
AACGTCCG	0.048

Sequence	PBM E-score
GATCACTA	0.0452
TCTTGTCA	-0.035
CGTCCGTC	-0.27
AGTCCGCA	-0.0617
ACAAAAGA	0.129
GAGCGGTA	-0.0937
CTTCGTCC	-0.255
AACCATCT	-0.138
AGTTTAGG	-0.0189
CACGATGC	-0.0719
ATGGGTAC	-0.076
TAAAGCGA	0.162
ACCCGTCC	-0.224
CTGTGCCC	-0.148
AGTGTTCA	0.112
GAGGAGAC	-0.364
AAGCGCGC	0.276
ACGTGCTG	0.109
GAAACCAA	-0.0638
CCTCGATC	0.0502
CGATACGC	0.0432
TCCTAGAA	-0.0867
ATAGGGCC	-0.0957
TCCGGGCA	0.00134
CCGAGTTC	0.194

Sequence	PBM E-score
GACACAAC	-0.137
AATGGGGA	-0.0925
GTCACCAA	-0.138
TGGGGGAA	-0.265
CCACGGTA	-0.0167
ACGCGCTG	0.0982
AAGAGTTA	-0.0746
AATGGGCG	-0.216
CGAGCCTA	-0.00061
AAACAGTA	0.0141
GCATATGA	0.118
CATACCGC	0.0641
CCTTTAGC	-0.0626
ACCGATCC	-0.0178
CTGCACGA	0.00658
AAACGTTT	0.00653
AGCTCGTG	0.0269
GCCTCCAC	-0.139
CCGCAGTC	-0.0294
CCTTACAG	-0.0126
CTTTTATA	-0.0788
TACAACCA	0.0846
ACGAATCC	0.13
AGCTCTCC	-0.212
CAGTAACA	0.0833

Sequence	PBM E-score
CCAAGCCC	-0.182
GTTGCGGA	-0.00763
TTGATCAA	0.187
ACGGACGA	0.119
TAACCTGA	-0.148
ATGTTTTA	0.0134
AGCATCTG	-0.0254
AGAGAGCC	-0.371
CAAAATGC	0.0501
AGCCTGTC	-0.12
AATATGGC	0.0624
AGTGCACA	-0.0428
AGGGTTAT	0.057
CCATGAGA	-0.0668
GCTATGTA	-0.0635
ACATTGGG	-0.12
GTGGGATA	0.0142
ATCAGTGG	-0.238
CTAACGCC	-0.0478
ATTCTACA	0.129
AGAGGGCC	-0.183
AAATTGGG	0.0676
TACTTAGA	0.00588
ACCAGGCA	-0.169
GACGCGCC	-0.0624

Sequence	PBM E-score
ACTCGCGA	0.271
AGCAGCAG	0.02
CGACCACA	-0.0866
ACCACTGG	0.0192
CGCCGAAG	-0.118
GCCCAGGC	-0.186
ACTGCAAT	0.062
ACAATTCC	0.0313
ACAACGAA	0.145
CGTTGGGA	0.00172
GACAGTAA	0.0752
TGAATAAA	0.0428
ATGAAGGG	-0.145
AGCTGGAG	-0.195
ATGCGCCC	0.0507
ATCGTTTA	0.121
CAAGCTAC	-0.0346
AGGGCTTG	0.0467
CGGGATAG	0.00323
CTACGGAG	-0.199
GCCAGACC	-0.146
ACACCACG	-0.129
